This is an account of results in PubChem BioAssay AID258 (DTP/NCI, 2004).

The list does not hold the whole screen: it gathers some chemical classes. Not every dose and run of a compound is shown. T/C: endpoint of the treated group in % of that of the vehicle group. For survival time, this PubChem deposit counts one and a half times the control or more as active, and values a quarter to a half above the control carry no call in these data; other NCI protocols may use other cut-offs. Schedules are NCI's codes, read here as Q, the interval in days (D) or hours (H), X, the number of doses. Some entries show no survivor count and are marked so; the dose need not have been tolerated. Some schedules carry Z or #; the key to these is not given.

The test has as its system CD2F1 mice, L1210 leukemia sc, survival T/C. Nature of the test: NCI In Vivo Anticancer Drug Screen. Data for tumor model L1210 Leukemia (subcutaneous) in CD2F1 (CDF1) mice. The settings on record: T/C endpoint: median survival time, higher T/C = longer survival. As to the method:
The antitumor activity of compounds was measured in mice bearing transplantable tumors. Survival or tumor size were measured and the results are expressed as the measurement made in the treated group (T) divided by the measurement made in the vehicle treated control group (C). The tumor model used in this assay is L1210 Leukemia (subcutaneous) in CD2F1 (CDF1) mice

For `ClCCN(CCCl)Cc1nc2ccc(Cl)cc2[nH]1`, the T/C is, setting by setting: (dose: 8.4 mg/kg/injection, schedule: Q01DX Z (sc), vehicle: methylcellulose (MC)) 100 % of control [survivor count not shown]; (dose: 14.0 mg/kg/injection, schedule: Q01DX Z (sc), vehicle: methylcellulose (MC)) 100 % of control [survivor count not shown]; (dose: 23.0 mg/kg/injection, schedule: Q01DX Z (sc), vehicle: methylcellulose (MC)) 100 % of control [survivor count not shown]; (dose: 39.0 mg/kg/injection, schedule: Q01DX Z (sc), vehicle: methylcellulose (MC)) 95 % of control [survivor count not shown].
Consider `O=C(O)c1ccc(N(CCCl)CCCl)cc1`, for which the T/C was 105 % of control [survivor count not shown] (dose: 23.4 mg/kg/injection, schedule: Q01DX Z (sc), vehicle: methylcellulose (MC)); 105 % of control [survivor count not shown] (dose: 64.8 mg/kg/injection, schedule: Q01DX Z (sc), vehicle: methylcellulose (MC)); 105 % of control [survivor count not shown] (dose: 108.0 mg/kg/injection, schedule: Q01DX Z (sc), vehicle: methylcellulose (MC)).
As to `Nc1ncnc2c1ncn2CCN(CCCl)CCCl`, the T/C (dose: 1.85 mg/kg/injection, schedule: Q01DX Z (sc), vehicle: saline) was 100 % of control [survivor count not shown]; the T/C (dose: 3.75 mg/kg/injection, schedule: Q01DX Z (sc), vehicle: saline) is 94 % of control [survivor count not shown]; the T/C (dose: 7.5 mg/kg/injection, schedule: Q01DX Z (sc), vehicle: saline) was 105 % of control [survivor count not shown]; the T/C (dose: 15.0 mg/kg/injection, schedule: Q01DX Z (sc), vehicle: saline) is 117 % of control [survivor count not shown]; the T/C (dose: 30.0 mg/kg/injection, schedule: Q01DX Z (sc), vehicle: saline) is 105 % of control [survivor count not shown].
On to `NCCN(CCCl)CCCl`, for which the T/C runs as follows: (dose: 0.5 mg/kg/injection, schedule: Q01DX009 (ip), vehicle: saline) 103 % of control; (dose: 1.0 mg/kg/injection, schedule: Q01DX009 (ip), vehicle: saline) 101 % of control; (dose: 2.0 mg/kg/injection, schedule: Q01DX009 (ip), vehicle: saline) 135 % of control.
